This is one part of the list.

For one test, the system named is SARS-CoV-2 5_SL1 RNA. Kind of test: NMR binding call after quantification (hit when 2 of 3 NMR criteria are met) (binary (1 = binding, 0 = not binding)); higher = binding. The conditions noted are these: RNA concentration 10 µM; fragment concentration 200 µM; 293 K.
`N#Cc1ccc(Cn2cnc3ccccc32)cc1` yielded an NMR binding call of 0.
Molecule `NC(=O)C1CCCn2ccnc21` (stereo not given) registered an NMR binding call of 0.
The same measure, in the same setting: with `CCC(NC)c1ccncc1` (stereo not given) the figure was 0.
Same read-out and setting: with `Cc1occc1C(=O)Nc1cc(C(C)(C)C)on1` the figure was 0; with `CC(N)c1ccc(-c2cncnc2)cc1` (stereo not given), 0.
In turn, `Cc1c(Cl)cccc1NC(=O)CN.Cl` showed an NMR binding call of 0.
With `CC(N)C(=O)Nc1cc(C(F)(F)F)n[nH]1.Cl` (stereo not given), the NMR binding call stood at 0.
Still for that read-out and setting: for `Nc1ncncc1-c1ccc(Cl)cc1` the value was 0.
Molecule `COC(C)c1nc(-c2cnoc2C)cs1` (stereo not given) showed an NMR binding call of 0.
The same measure, in the same setting: for `O=C(NCCc1ccncc1)c1ccccc1F` the value was 0.
`Cc1nc2ccccc2n1CCC(N)=O`: the NMR binding call stood at 0.
The same measure, in the same setting: for `CN(C)c1ccc(CNn2cnnc2)cc1` the value was 0; for `CC(N)c1nc(Cc2ccccc2)no1.Cl` (stereo not given), 0; for `COc1ccc(NCc2ccccc2O)cc1`, 0.
On the same count and under the same terms, with `Nc1nccc(-c2ccc(Cl)cc2)n1` the figure was 0.
For `CCNc1ccc(C)nn1`, the NMR binding call was found to be 0.
For `CC(=O)NCc1ncc[nH]1`, the NMR binding call was 0.
Molecule `c1ccc(SCCN2CCOCC2)cc1` displayed an NMR binding call of 0.
Same read-out and setting: with `CC(C)Nc1cccnc1` the figure was 0; with `FC(F)(F)c1ccc(CN2CCOCC2)cc1`, 0.
On the same count and under the same terms, for `Cc1n[nH]c(C)c1S(=O)(=O)N(C)C` the value was 0.
As for `Cn1cc(Oc2ncncc2Cl)cn1`, the NMR binding call was 0.
`Cl.Cl.c1cn(CC2CCCCN2)nn1` (stereo not given) registered an NMR binding call of 0.
Same read-out and setting: with `CN(C)c1ccc(C(=O)Nc2ccncc2)cc1` the figure was 0; with `COC(=O)c1ccccc1NC(=O)N1CCCC1`, 0.
The same measure, in the same setting: with `O=C(NCCN1CCCC1=O)Nc1ccccc1` the figure was 0; with `CN(C)Cc1ccc(C#N)cc1`, 0; with `Cc1cnc(N2CCNCC2)s1.Cl.Cl`, 0.
The same measure, in the same setting: for `Cc1cc2ncn(CC(N)=O)c2cc1C` the value was 0.
In the case of `CC(C)(C)C(=O)NCCc1nc2ccccc2[nH]1`, the NMR binding call turned out to be 0.
On the same count and under the same terms, with `OCCN1CCOCC1` the figure was 0; with `OCC1CN(Cc2ccccc2)CCO1` (stereo not given), 0.
In the case of `COCC1CN(c2ccccn2)CCO1` (stereo not given), the NMR binding call is 0.
Consider `COC(=O)Nc1ccc(Cc2ccncc2)cc1`, for which the NMR binding call came out at 0.
Regarding `CC(C)C(=O)Nc1ccc(N2CCCCC2)cc1`, the NMR binding call stood at 0.
Same read-out and setting: with `OCc1cn(-c2ccc(Cl)c(Cl)c2)nn1` the figure was 1; with `CN1CCN(C(=O)CO)CC1`, 0.
On the same count and under the same terms, for `O=C(CCCc1ccccc1)N1CCOCC1` the value was 0; for `O=C(NCCc1ccncc1)NC1CCCCC1`, 0.
The molecule `CC(=O)Nc1ccc(CN2CCOCC2)cc1` yielded an NMR binding call of 0.

The next test concerns SARS-CoV-2 5_SL1234 RNA. The test is described as above. The conditions noted are these: RNA concentration 10 µM; fragment concentration 200 µM; 293 K.
`NC(=O)C1CCCn2ccnc21` (stereo not given) had an NMR binding call of 0.
On the same count and under the same terms, with `Cc1occc1C(=O)Nc1cc(C(C)(C)C)on1` the figure was 0.
Still for that read-out and setting: with `Cc1c(Cl)cccc1NC(=O)CN.Cl` the figure was 0; with `CC(N)C(=O)Nc1cc(C(F)(F)F)n[nH]1.Cl` (stereo not given), 0.
Same read-out and setting: with `COC(C)c1nc(-c2cnoc2C)cs1` (stereo not given) the figure was 0.
In turn, `Cc1nc2ccccc2n1CCC(N)=O` returned an NMR binding call of 0.
The same measure, in the same setting: for `CN(C)c1ccc(CNn2cnnc2)cc1` the value was 0; for `CC(N)c1nc(Cc2ccccc2)no1.Cl` (stereo not given), 0; for `COc1ccc(NCc2ccccc2O)cc1`, 0.
As for `Nc1nccc(-c2ccc(Cl)cc2)n1`, the NMR binding call stood at 0.
Still for that read-out and setting: for `CCNc1ccc(C)nn1` the value was 0; for `CC(=O)NCc1ncc[nH]1`, 0; for `c1ccc(SCCN2CCOCC2)cc1`, 0.
Still for that read-out and setting: with `CC(C)Nc1cccnc1` the figure was 0.
The same measure, in the same setting: with `FC(F)(F)c1ccc(CN2CCOCC2)cc1` the figure was 0; with `Cc1n[nH]c(C)c1S(=O)(=O)N(C)C`, 0.
The molecule `Cn1cc(Oc2ncncc2Cl)cn1` had an NMR binding call of 0.
Molecule `Cl.Cl.c1cn(CC2CCCCN2)nn1` (stereo not given) gave an NMR binding call of 0.
The molecule `CN(C)c1ccc(C(=O)Nc2ccncc2)cc1` displayed an NMR binding call of 1.
In the case of `COC(=O)c1ccccc1NC(=O)N1CCCC1`, the NMR binding call turned out to be 0.
The same measure, in the same setting: with `CN(C)Cc1ccc(C#N)cc1` the figure was 0; with `Cc1cnc(N2CCNCC2)s1.Cl.Cl`, 0.
`CC(C)(C)C(=O)NCCc1nc2ccccc2[nH]1` had an NMR binding call of 0.
Take `OCCN1CCOCC1`: the NMR binding call came to 0.
Still for that read-out and setting: with `OCC1CN(Cc2ccccc2)CCO1` (stereo not given) the figure was 0.
`COCC1CN(c2ccccn2)CCO1` (stereo not given) came in with an NMR binding call of 0.
The molecule `COC(=O)Nc1ccc(Cc2ccncc2)cc1` yielded an NMR binding call of 0.
On the same count and under the same terms, for `CC(C)C(=O)Nc1ccc(N2CCCCC2)cc1` the value was 0; for `OCc1cn(-c2ccc(Cl)c(Cl)c2)nn1`, 1; for `O=C(NCCc1ccncc1)NC1CCCCC1`, 0.
For the molecule `CC(=O)Nc1ccc(CN2CCOCC2)cc1`, the NMR binding call was found to be 0.

The subject of the next test is SARS-CoV-2 5_SL2+3 RNA. The description is as above. To be noted: RNA concentration 10 µM; fragment concentration 200 µM; 293 K.
Take `N#Cc1ccc(Cn2cnc3ccccc32)cc1`: the NMR binding call turned out to be 0.
The same measure, in the same setting: for `CCC(NC)c1ccncc1` (stereo not given) the value was 0; for `CC(N)c1ccc(-c2cncnc2)cc1` (stereo not given), 0.
As to `Nc1ncncc1-c1ccc(Cl)cc1`, the NMR binding call worked out at 0.
Still for that read-out and setting: with `O=C(NCCc1ccncc1)c1ccccc1F` the figure was 0.
As to `O=C(NCCN1CCCC1=O)Nc1ccccc1`, the NMR binding call stood at 0.
The same measure, in the same setting: with `Cc1cc2ncn(CC(N)=O)c2cc1C` the figure was 0; with `CN1CCN(C(=O)CO)CC1`, 0.
With `O=C(CCCc1ccccc1)N1CCOCC1`, the NMR binding call was 0.
